PubChem BioAssay AID2563 (Broad Institute, 2010)
About 800 (0.28%) of roughly 290,000 compounds were called active. The shares of active, inactive and inconclusive entries below differ from those in the screen.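 How the source made its calls: active means fall in fluorescence gain of 50% or more versus controls, with final raw signal at or below 3038400; inconclusive means same 50% fall but final raw signal above 3038400; inactive means fall in fluorescence gain under 50%.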

Protein sequences, listed by entry. Tags and fused reporters are not part of them.
UniProt Q03530, whole entry, looked up: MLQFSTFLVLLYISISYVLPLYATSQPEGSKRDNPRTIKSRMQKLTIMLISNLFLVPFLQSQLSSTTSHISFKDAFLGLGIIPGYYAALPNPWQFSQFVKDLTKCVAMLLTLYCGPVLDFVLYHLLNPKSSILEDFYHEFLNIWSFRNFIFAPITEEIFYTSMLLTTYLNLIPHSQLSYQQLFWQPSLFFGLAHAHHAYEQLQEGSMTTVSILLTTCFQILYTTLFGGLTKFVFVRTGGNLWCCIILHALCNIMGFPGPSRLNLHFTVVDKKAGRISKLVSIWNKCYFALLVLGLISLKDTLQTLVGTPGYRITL

biological target: CAAX prenyl protease 2 (Saccharomyces cerevisiae (strain ATCC 204508 / S288c)) (UniProt Q03530); experiment: blockers of Rce1 CaaX peptide cleavage – biochemical, fluorescence, cell-free homogeneous, primary screen (AID 2563); conditions: yeast membranes, quenched prenylated peptide cleavage fluorescence

SMILES	outcome
Clc1ccc(/C=C\c2nccc3c2[nH]c2ccccc23)cc1	inconclusive
O=C(COc1coc(CN2CCc3ccccc3C2)cc1=O)Nc1cccc(F)c1	inactive
C/C=C(/C)C(=O)O[C@H]1[C@@H](O)c2c(ccc3ccc(=O)oc23)OC1(C)C	active
O=[N+]([O-])c1ccc2c3n([n+]([O-])c2c1)CCN=C3c1ccc(Cl)cc1	inconclusive
Cc1cc(=O)oc2c(CN(CC(C)C)CC(C)C)c(O)ccc12	inconclusive
CC1=CC2=NC(=O)CC(C)(C(=O)N(CC(=O)NC(C)(C)C)Cc3ccccc3)N2C=C1 (stereo not given)	inconclusive
CCOC(=O)c1c(C)n(OCc2ccccc2)c2ccc3nonc3c12	inconclusive
CN(C)S(=O)(=O)c1ccc(-c2cn3ccccc3n2)cc1	inconclusive
Cc1cc(=O)n2ccccc2c1C#N	active
CC1(C)Cc2ccccc2-c2nnc(-c3cccnc3)n21	inconclusive
Cc1cc(-c2nc(C)c(-c3nnc(SCC(=O)Nc4ccccc4)n3C)s2)no1	inconclusive
OCCN1CCN(C2CCC(c3ccc(F)cc3)c3ccc(F)cc32)CC1 (stereo not given)	inactive
Cc1cc2nc(/C(C#N)=C\c3ccc(-c4ccccc4C(=O)O)o3)[nH]c2cc1C	inactive
Cc1cc(Cl)ccc1OCCCC(=O)N1CCCCC1	inactive
O=C(CC(c1ccccc1)c1ccccc1)NCC(O)c1ccc([N+](=O)[O-])cc1 (stereo not given)	active
Cc1cc(C)n2nc(NCc3ccccc3)nc2n1	inconclusive
COc1ccc2cc(-c3ccccc3)c(=O)oc2c1	inconclusive
Cc1ccc(NC(=S)NN(C)c2nc(C)cnc2C)cc1	inactive
COc1ccc(N2C(=O)C3C(c4ccc(C(=O)O)cc4)NC(Cc4ccccc4)(C(=O)O)C3C2=O)c([N+](=O)[O-])c1 (stereo not given)	inconclusive
Cc1ccc(NC(=O)CSc2nnc(-c3n[nH]c4ccccc34)n2-c2ccccc2)c(C)c1	inactive
CS(=O)(=O)Nc1ccccc1C(=O)NC1CC2CCC1C2 (stereo not given)	active
COC(=O)c1ccc2c(C(C)(C)O)c(C(C)(C)O)[nH]c2c1	inconclusive
COc1ccc(CCNC(=O)CC2Nc3cc(C)c(C)cc3NC2=O)cc1OC (stereo not given)	inactive
COC(=O)c1oc2ccc(Cl)cc2c1-n1cccc1	inactive
N=c1c(C(=O)NCCc2ccccc2)cc2c(=O)n3ccccc3nc2n1CC1CCCO1 (stereo not given)	inconclusive
COc1ccc(-c2nc(C#N)c(NC(C)C)o2)cc1	inconclusive
CC1CCCN(CCCNC(=O)c2cc3c(s2)-c2ccccc2OC3)C1 (stereo not given)	inconclusive

A draw from above in order of molar mass, rising:
SMILES	outcome
COC(=O)c1oc2ccc(Cl)cc2c1-n1cccc1	inactive
CCOC(=O)c1c(C)n(OCc2ccccc2)c2ccc3nonc3c12	inconclusive
COc1ccc(N2C(=O)C3C(c4ccc(C(=O)O)cc4)NC(Cc4ccccc4)(C(=O)O)C3C2=O)c([N+](=O)[O-])c1 (stereo not given)	inconclusive

Four entries from above, as a markdown table:

| SMILES | outcome |
| --- | --- |
| Cc1cc(C)n2nc(NCc3ccccc3)nc2n1 | inconclusive |
| COc1ccc2cc(-c3ccccc3)c(=O)oc2c1 | inconclusive |
| Cc1ccc(NC(=S)NN(C)c2nc(C)cnc2C)cc1 | inactive |
| COc1ccc(N2C(=O)C3C(c4ccc(C(=O)O)cc4)NC(Cc4ccccc4)(C(=O)O)C3C2=O)c([N+](=O)[O-])c1 (stereo not given) | inconclusive |

The list continues:

SMILES	outcome
Nc1cccc(-c2nc3ccccc3[nH]2)c1	inconclusive
CC1=CC2=NC(=O)CC(C)(C(=O)N(CC(=O)NC3CCCC3)c3ccccc3C)N2C=C1 (stereo not given)	inconclusive
NS(=O)(=O)c1ccc(CCNC(=O)c2ccc3ccccc3n2)cc1	active
Cn1c(=O)c2[nH]c(-c3ccc(S(=O)(=O)O)cc3)nc2n(C)c1=O	inconclusive
COC(=O)C1=C(C)N(Cc2ccccc2)C(=NCc2ccccc2)N[C@H]1c1cccc(F)c1	inactive
CCOP(=O)(OCC)c1nc(-c2ccccc2)oc1N1CCCCC1	inconclusive
COc1ccccc1-c1nc(C#N)c(NCCCn2ccnc2)o1	inconclusive
CCCN(CCC)S(=O)(=O)c1ccc(C(=O)NCc2ccco2)cc1	inactive
CC(C)(OC1OC(CO)C(O)C(O)C1O)[C@H]1Oc2ccc3ccc(=O)oc3c2[C@H]1O (stereo not given in full)	inconclusive
CN(C)C=Nc1ccc2nn(-c3ccccc3)nc2c1	inconclusive
CCn1c(NCCCO)nc2c(c1=O)C(C)(CC)Cc1ccccc1-2 (stereo not given)	inconclusive
O=C(CSc1nccn1-c1ccc(Cl)cc1)N1CCCc2ccccc21	inactive
COc1cc(C(=O)Nc2nc3ccc(S(=O)(=O)N4CCOCC4)cc3s2)cc(OC)c1OC	inconclusive
COc1ccc(-c2oc3ccccc3c2C(=O)OCc2ccccc2OC)cc1	active
O=C1OCCN1C(=O)[C@H]1[C@H](c2ccc(F)cc2)C(c2ccc(F)cc2)=NN1c1ccc(Br)cc1	active
Clc1cccc(CN2CCc3c([nH]c4ccccc34)C2)c1Cl	active
CCCCc1cc(=O)oc2cc(O)ccc12	inconclusive
Cc1ccc(-c2nc3ccccc3[nH]2)cc1N	inconclusive
COc1cccc(-c2c(C(=O)N/N=C/c3sccc3C)nnn2-c2nonc2N)c1	active
COC(OC)c1ccc(C#N)c(=O)[nH]1	inconclusive
Cc1cc(=O)oc2c3c(cc(OCC(=O)NCC(=O)N[C@H](C(=O)O)C(C)C)c12)OC(C)(C)CC3	inconclusive
COc1cc(-c2nc3ccccn3c2/N=C/c2cccc(OC)c2O)ccc1O	active
O=C(Nc1ccc(S(=O)(=O)Nc2ccccc2)cc1)C1COc2ccccc2O1 (stereo not given)	active
COc1cc2c(cc1OC)-c1cc(OCCN3CCOCC3)nc(=O)n1CC2	inconclusive
COCCCNC(=O)Cc1c(C)c2cc3c(cc2oc1=O)OC(C)(C)CC3	inconclusive
CCOC(=O)c1nn(-c2ccccc2)c(C(=O)OCC)c1N	inconclusive
COc1cccc(C2CC(c3ccc(Br)cc3)=NN2C(=O)c2ccncc2)c1OC (stereo not given)	active

SMILES	outcome
N#Cc1cc2c([nH]c1=O)CCCC2	inconclusive
Cc1ccc(-c2nnc(N(C)C(=O)c3cccnc3)s2)cn1	inactive
CCOC(=O)N1CCN(C(=O)CNC(=O)c2nn(-c3ccc(OC)c(Cl)c3)c(=O)c3ccccc23)CC1	inactive
CCC1(C)Cc2ccccc2-c2nc(NCCO)n(-c3ccc(C)cc3)c(=O)c21 (stereo not given)	inconclusive
CN1CCN(C(c2cccnc2)c2ccc3cccnc3c2O)CC1 (stereo not given)	inactive
Cc1c(CC(=O)O)c(=O)oc2cc(OCc3nn[nH]n3)ccc12	inconclusive
COc1ccc2c(c1)CCc1cnc(N)nc1-2	inconclusive
Cc1nc(-c2ccccc2)sc1-c1ccn[nH]1	inconclusive
CCc1c(C)c2cc(Cl)c(O)c(CN3CCCC3)c2oc1=O	inconclusive
COc1ccc(-c2cc(C(=O)Nc3c(C)n(C)n(-c4ccccc4)c3=O)c3ccccc3n2)cc1	inconclusive
Nc1nnnn1/N=C/c1ccccc1OCc1ccc(Cl)cc1Cl	active
COCCN(CCOC)C(=O)c1cc2c(=O)n3ccccc3nc2s1	inconclusive
O=C(O)c1ccc2cc(-c3ccccc3)[nH]c2c1	inconclusive
CCN1CCCC1CNC(=O)c1cc2cc(OC)c(OC)cc2[nH]1 (stereo not given)	inconclusive
Clc1ccc2[nH]c3c(c2c1)CNCC3	inactive
CN(Cc1ccco1)S(=O)(=O)c1nnc(NC(=O)c2cccc(Cl)c2)s1	inactive
O=c1oc2c(CN3CCOCC3)c(O)ccc2c2c1CCCC2	inconclusive
COc1ccc2c(CC(=O)NCC3CCC(C(=O)O)CC3)cc(=O)oc2c1 (stereo not given)	inconclusive
C=CCn1c(-c2cccc([N+](=O)[O-])c2)n[nH]c1=S	inactive
CC(=O)Oc1cc2oc(=O)cc(C)c2cc1OC(C)=O	inconclusive
N#Cc1nc(-c2ccc(Cl)cc2)oc1N1CCCCC1	inconclusive
COc1ccc2c(C)c(CCC(=O)NCCCN3CCCC3=O)c(=O)oc2c1C	inconclusive
Cc1c(Cc2ccccc2)c(=O)n2c([nH]c3ccccc32)c1C#N	inconclusive
COC(=O)c1nc(-c2ccccc2)oc1N(C)C	inconclusive
Cc1ccc(CNC(=O)CN(Cc2cccs2)C(=O)C2(C)CC(=O)N=C3C=CC=CN32)cc1 (stereo not given)	inconclusive
Cc1oc2c(CN3CCC(C)CC3)c(O)ccc2c(=O)c1-c1ccccc1	inconclusive
CCc1ccc(NC(=O)CSc2nnc(CC)c(CC)n2)cc1	inactive

SMILES	outcome
O=C(CCCN1C(=O)c2ccccc2C1=O)N1CCc2ccccc2C1	inactive
O=c1[nH]c(-c2ccccc2)c(-c2ccccc2)[nH]1	inconclusive
COC(=O)C1=CN(C(C)C)C=C(C(=O)OC)C1c1cccc(OC)c1	inconclusive
CC1=CN2C(=NC(=O)CC2(C)C(=O)N(CC(=O)NC2CCCC2)Cc2ccc(Cl)cc2)C=C1 (stereo not given)	inconclusive
c1ccc(CNc2nc(NCc3ccccc3)c3ccccc3n2)cc1	active
NC(=O)c1ccsc1NC(=O)COC(=O)c1ccc(Cl)nc1	inactive
COP(=O)(OC)c1nc(-c2ccccc2)oc1N1CCOCC1	inconclusive
N#Cc1c(N2CCN(C(=O)c3ccccc3)CC2)nc(-c2ccccc2)c2c1CCCC2	active
Fc1ccc(-c2cc3nc(-c4ccccc4)cc(N4CCN(CCN5CCOCC5)CC4)n3n2)cc1	active
CCN(CC)CCN(C(=O)c1ccc2ccccc2c1)c1nc2cc3c(cc2s1)OCO3	active
COCCCn1cnc2oc3nc4ccccc4nc3c2c1=O	inconclusive
c1ccc(-c2ccc(-c3ccccn3)s2)nc1	inconclusive
O=c1c2ccccc2oc2cc(NCCCn3ccnc3)ccc12	inconclusive
COc1ccc(C2=NN(c3ccccc3)C(c3cn(CCC(=O)O)nc3-c3ccccc3)C2)cc1 (stereo not given)	inconclusive
CC1(c2ccccn2)Nc2ccccc2-c2nc3ccccc3n21 (stereo not given)	inconclusive
CCC1(CC)Cc2ccccc2-c2nc(NCCCO)[nH]c(=O)c21	inconclusive
CC(C)CN1CCN=C1Nc1ccccc1	inconclusive
CC(=O)N1CCCc2cc(S(=O)(=O)N(C)Cc3ccccc3)ccc21	inactive
CCC1(C)Cc2ccccc2-c2nc(NCCCO)n(C)c(=O)c21 (stereo not given)	inconclusive
Cc1ccc(S(=O)(=O)c2c(N)n(NC(=O)C3CC3)c3nc4ccccc4nc23)cc1	inconclusive
Cc1csc2ncc(C(=O)NCc3ccccn3)c(=O)n12	inconclusive
Cc1ccc(-c2cn3cccnc3n2)cc1NC(=O)c1c(-c2ccccc2Cl)noc1C	inconclusive
COCC(=O)Nc1ccc(-c2cn3cccnc3n2)cc1	inconclusive
O=c1oc2c(CN3CCCCC3)c(O)ccc2c2c1CCCCC2	inconclusive
